The match of structure and compound is tentative.
Tests used:
human FAP (hFAP) = human FAP (hFAP) (Homo sapiens, UniProt Q12884); experiment: FAPL-fluorescein binding to HLF cells before and after transfection with human FAP
From the text: (§1) To test the ability of this ligand to target drugs to myofibroblasts in fibrotic tissues, a FAP-targeting ligand (FAPL) was linked to fluorescein (FIG. 2A, upper structure) and its interaction with a stable human lung fibroblast cell line with FAP-expression (HLF-FAP) was examined.

By UniProt entry, the sequences of proteins in these tests, tags left out.
UniProt Q12884, whole entry: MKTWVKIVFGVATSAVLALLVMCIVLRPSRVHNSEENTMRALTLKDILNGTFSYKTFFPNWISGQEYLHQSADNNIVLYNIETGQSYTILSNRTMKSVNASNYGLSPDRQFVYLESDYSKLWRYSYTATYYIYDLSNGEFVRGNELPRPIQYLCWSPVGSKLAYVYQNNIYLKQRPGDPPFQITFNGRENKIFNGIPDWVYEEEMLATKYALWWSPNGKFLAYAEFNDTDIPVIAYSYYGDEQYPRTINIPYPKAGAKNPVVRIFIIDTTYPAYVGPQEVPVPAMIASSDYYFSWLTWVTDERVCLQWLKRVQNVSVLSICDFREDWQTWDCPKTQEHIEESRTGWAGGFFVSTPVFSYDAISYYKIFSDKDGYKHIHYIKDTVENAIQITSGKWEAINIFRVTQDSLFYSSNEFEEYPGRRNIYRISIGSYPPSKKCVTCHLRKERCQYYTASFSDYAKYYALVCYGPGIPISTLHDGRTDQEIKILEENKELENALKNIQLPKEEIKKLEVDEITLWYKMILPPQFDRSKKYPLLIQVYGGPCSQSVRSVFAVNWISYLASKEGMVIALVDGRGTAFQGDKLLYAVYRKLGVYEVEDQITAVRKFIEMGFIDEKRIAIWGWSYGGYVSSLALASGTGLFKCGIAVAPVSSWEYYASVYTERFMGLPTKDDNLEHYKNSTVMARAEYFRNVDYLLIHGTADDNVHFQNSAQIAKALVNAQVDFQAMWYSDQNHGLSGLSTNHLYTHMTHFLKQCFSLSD

HLF-FAP cells = experiment: Live cell imaging of FAPL-fluorescein internalization; details: 5 min vs. 30 min
Experimental: Confocal microscopy of human lung fibroblasts expressing fibroblast activation protein (HLF-FAP cells) expressing the late endosomal marker Rab7a conjugated with red fluorescent protein (Rab7a-RFP) incubated with FAPL-fluorescein and imaged 5 min (a-c) and 30 min (d-f) after FAPL-fluorescein addition. FAPL-fluorescein staining is shown in green, while Rab7a-RFP staining is shown in red. DRAQ5 nuclei staining is shown in blue. Colocalization of FAPL-fluorescein with Rab7a-RFP is shown in panels c and f (indicated in yellow).
as §1
HLF-hFAP cells were seeded in a glass-bottom dish and incubated overnight with endosome tracker (Rab7a-RFP, ThermoFisher). Cells were then incubated with FAPL-Fluorescein (10 nM) for 1 hour at 4° C., followed by staining with 5 nM DRAQ5 nuclear dye (ThermoFisher). After washing 3 times in PBS washes, spatial localization of FAPL-Fluorescein was monitored at any given time under ambient temperature by confocal microscopy (FV 1000, Olympus). Confocal images were further processed using FV10-ASW Olympus software.

[1] = test system: FAP on fibroblasts from an IPF patient; experiment: FAPL-fluorescein uptake by primary human lung fibroblasts (IPF vs non-IPF)
From the text: Comparison of FAPL-Fluorescein uptake by non-IPF (upper row; control) and IPF (lower row) HFL. Binding of FAPL-fluorescein and expression of alpha smooth muscle actin (αSMA), a fibroblast activation marker, are shown in green and red, respectively. The merging of the two markers is shown in pink (right column).
To determine whether FAPL-mediated drug delivery can occur in a more IPF-relevant cell type, FAPL-fluorescein uptake by primary human lung fibroblasts obtained from IPF patients was examined next.
HLF cells, primary human IPF fibroblasts and non-IPF fibroblasts were cultured, fixed, and permeabilized on glass-bottom dishes for immunofluorescent staining. Primary antibodies against hFAP (1:200, FAB3715R, R&D Systems) or αSMA (1:1000, ab21027, Abcam) were incubated overnight at 4° C. After PBS washes, samples were incubated with Alexa Fluor® 488-labeled secondary anti-goat antibodies (Abcam, 1:400). Images were captured and analyzed by confocal microscopy.

`C[C@H](NC(=O)c1ccnc(CNC(=O)CCC(=O)NC(CSC2CC(=O)N(c3ccc(-c4c5ccc(=O)cc-5oc5cc(O)ccc45)c(C(=O)O)c3)C2=O)C(=O)O)c1)C(=O)N1CC(F)(F)C[C@H]1C#N` (stereo partly drawn) was tested, and the “binding to FAP with co-administration of excess FAPL” value (human FAP (hFAP); HLF-FAP cells, excess FAPL) was “largely prevented by co-administration of excess FAPL”, the “binding to HLF cells not transfected with FAP” value (human FAP (hFAP); non-transfected HLF cells) was “minimal” and the Kd (human FAP (hFAP); read-out: Kd of binding to FAP, HLF-FAP cells) was 0.01 µM. The binding and internalization (HLF-FAP cells) was “rapidly internalize into Rab7a-expressing endosomes”, the “uptake by control fibroblasts” value ([1]; control fibroblasts from human lung explants) was “little uptake” and the “binding to IPF fibroblasts” value ([1]; primary human lung fibroblasts from IPF patients) was “binds to IPF fibroblasts”.

Source: patent US20230158153A1, “PI3 KINASE INHIBITORS AND USES THEREOF” (Purdue Research Foundation, priority 2020, published 2023)
